PubChem BioAssay AID743454, Peter MacCallum Cancer Centre – 2014
The deposit covers about 18,000 reagents; below is a random part of them. In the full data, 450 (2.5%) were called active. 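Single biological run; no consistent viability z cut-off exists, so the class columns, not z-scores, define the calls.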 No sequences are given here.

Assay: 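Genes whose loss kills vorinostat-resistant colon cancer cells under vorinostat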 (primary screen)
Cell system: human HCT116-VR colon cancer cells, selected for vorinostat resistance
Knock-down reagent: siRNA pool against human genes, 40 nM siRNA pool
Timing: vorinostat for 24 h, read-out about 72 h after transfection
Challenge: vorinostat at 2.5 µM final
Read-out: 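Cell viability by CellTiter-Fluor and caspase 3/7 activity by luminescence, each scaled to mock wells per plate, duplicates averaged, then robust z-scored over all plates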
Reading the numbers: viability robust z-score: higher = more viable cells than screen typical; caspase robust z-score: higher = more caspase 3/7 activity than screen typical
Active means: 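a knock-down is a hit when classed RV1 or RV2 for lowered viability, or CA1 or CA2 for caspase activation; those lethal without drug were dropped; hits were retested singly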

| gene | PubChem SID | viability hit class | caspase hit class | viability robust z-score | caspase robust z-score | Outcome |
| --- | --- | --- | --- | --- | --- | --- |
| DBNDD2 (GeneID 55861) | SID152149465 | no change | no change | 0.82 | 0.43 | inactive |
| DCUN1D3 (GeneID 123879) | SID152149228 | no change | no change | -0.29 | 2.62 | inactive |
| TPRN (GeneID 286262) | SID152149149 | no change | no change | -0.1 | 0.21 | inactive |
| ALG14 (GeneID 199857) | SID134320972 | no change | no change | 0.58 | -0.79 | inactive |
| SNX12 (GeneID 29934) | SID134317864 | no change | no change | -0.23 | 0.96 | inactive |
| CXCL16 (GeneID 58191) | SID152153246 | no change | no change | 0.84 | 1.07 | inactive |
| LCORL (GeneID 254251) | SID135623656 | no change | no change | -1.61 | 1.58 | inactive |
| OR10H1 (GeneID 26539) | SID152153335 | no change | no change | -0.13 | 2.29 | inactive |
| CRH (GeneID 1392) | SID134315523 | no change | no change | 1.38 | -0.16 | inactive |
| UCK2 (GeneID 7371) | SID56478981 | no change | no change | -0.26 | -1.04 | inactive |
| GDPD2 (GeneID 54857) | SID152152668 | no change | no change | 1.04 | -0.66 | inactive |
| CNOT7 (GeneID 29883) | SID152156507 | no change | no change | 0.36 | -0.36 | inactive |
| GADD45A (GeneID 1647) | SID134310139 | no change | no change | 0.99 | -1.11 | inactive |
| DOHH (GeneID 83475) | SID152147582 | no change | no change | 0.11 | -0.6 | inactive |
| NEK3 (GeneID 4752) | SID152154962 | no change | no change | -1.46 | 0.99 | inactive |
| GPRC5C (GeneID 55890) | SID134311051 | no change | no change | 1.22 | -1.21 | inactive |
| ARX (GeneID 170302) | SID134321202 | no change | no change | -0.62 | -0.92 | inactive |
| NEU1 (GeneID 4758) | SID134315453 | no change | no change | -0.2 | 3.33 | inactive |
| TMUB2 (GeneID 79089) | SID135622714 | no change | no change | 0.06 | 0.3 | inactive |
| DERA (GeneID 51071) | SID152146837 | no change | no change | -0.64 | 0.02 | inactive |
| ANKRD39 (GeneID 51239) | SID152149486 | no change | no change | -0.28 | 3.6 | inactive |
| RASGEF1C (GeneID 255426) | SID135623439 | no change | no change | -0.62 | 0.88 | inactive |
| B3GLCT (GeneID 145173) | SID152146927 | no change | no change | -0.83 | -0.49 | inactive |
| LCA5 (GeneID 167691) | SID135623552 | no change | no change | -1 | 1.21 | inactive |
| KBTBD4 (GeneID 55709) | SID152148549 | no change | no change | -0.42 | -0.24 | inactive |
| ECT2 (GeneID 1894) | SID134311792 | no change | no change | -0.88 | 2.71 | inactive |
| C1orf50 (GeneID 79078) | SID134318469 | no change | no change | -0.24 | 0.44 | inactive |
| PLA2G4F (GeneID 255189) | SID135621917 | no change | no change | -0.03 | 2.22 | inactive |
| TFIP11 (GeneID 24144) | SID152156716 | no change | no change | -1.96 | -0.36 | inactive |
| SPTLC3 (GeneID 55304) | SID135621912 | no change | no change | 0.73 | 0.08 | inactive |
| LAP3 (GeneID 51056) | SID135621107 | no change | no change | 0.57 | -0.96 | inactive |
| KLHDC10 (GeneID 23008) | SID152150206 | no change | no change | 0.16 | -0.22 | inactive |
| RAB5B (GeneID 5869) | SID134310227 | no change | no change | 0.18 | -0.44 | inactive |
| MIR22HG (GeneID 84981) | SID135622868 | no change | no change | 0.4 | -1.25 | inactive |
| PIP4K2C (GeneID 79837) | SID56478804 | no change | no change | 1.2 | -0.53 | inactive |
| ELAVL1 (GeneID 1994) | SID135620734 | no change | no change | 0.36 | -0.22 | inactive |
| ZNF304 (GeneID 57343) | SID134324369 | no change | no change | 0.9 | 0.06 | inactive |
| CYP3A5 (GeneID 1577) | SID134314409 | no change | no change | 1 | 2.38 | inactive |
| RGP1 (GeneID 9827) | SID152151631 | no change | no change | 0.02 | -1.31 | inactive |
| GPHA2 (GeneID 170589) | SID134319341 | no change | no change | 0.3 | -0.61 | inactive |
| OR4C11 (GeneID 219429) | SID135624587 | no change | no change | 1.03 | -1.17 | inactive |
| TOM1L1 (GeneID 10040) | SID134310157 | no change | no change | 0.72 | -0.93 | inactive |
| CYB5R2 (GeneID 51700) | SID152152419 | no change | no change | 1.65 | 0.56 | inactive |
| STRN3 (GeneID 29966) | SID135623686 | no change | no change | 0.34 | 1.62 | inactive |
| SEMA4G (GeneID 57715) | SID135623689 | no change | no change | -0.76 | 0.34 | inactive |
| PGRMC2 (GeneID 10424) | SID152151521 | no change | no change | -1.46 | -0.49 | inactive |
| QNG1 (GeneID 84267) | SID152150684 | no change | no change | -0.16 | 1.15 | inactive |
| P3H3 (GeneID 10536) | SID152152418 | no change | no change | -0.97 | 3.59 | inactive |
| CLBA1 (GeneID 122616) | SID152151610 | no change | no change | 1.46 | 1.47 | inactive |
| CASP6 (GeneID 839) | SID152152316 | no change | no change | 0.44 | 0.37 | inactive |
| TTK (GeneID 7272) | SID56478775 | no change | no change | -1.84 | 3.99 | inactive |
| PRR27 (GeneID 401137) | SID135625160 | no change | no change | 1.26 | 0.12 | inactive |
| ZNF276 (GeneID 92822) | SID135622996 | no change | no change | 0.11 | 2.4 | inactive |
| LSM6 (GeneID 11157) | SID152155209 | no change | no change | -0.3 | 2.64 | inactive |
| DNAAF19 (GeneID 388389) | SID134330007 | no change | no change | 1.64 | -0.72 | inactive |
| BLOC1S3 (GeneID 388552) | SID152154654 | no change | no change | 0.97 | 1.26 | inactive |
| KNDC1 (GeneID 85442) | SID152151432 | no change | no change | -0.05 | -0.09 | inactive |
| OR6K3 (GeneID 391114) | SID134329911 | no change | no change | -0.15 | 3.69 | inactive |
| ZNF544 (GeneID 27300) | SID135623942 | no change | no change | 0.58 | 3.33 | inactive |
| IL3RA (GeneID 3563) | SID134312922 | no change | no change | -0.62 | 1.64 | inactive |
| ACSM2A (GeneID 123876) | SID135624306 | no change | no change | -0.37 | -1.02 | inactive |
| HACE1 (GeneID 57531) | SID152151110 | no change | no change | -0.15 | 2.19 | inactive |
| LIN28A (GeneID 79727) | SID152156650 | no change | no change | 0.55 | 0.52 | inactive |
| IFITM2 (GeneID 10581) | SID135623916 | no change | no change | 0.28 | 0.48 | inactive |
| KLHDC2 (GeneID 23588) | SID134317089 | no change | no change | 1 | 1.04 | inactive |
| CBARP (GeneID 255057) | SID152147870 | no change | no change | -0.14 | 0.88 | inactive |
| RNF44 (GeneID 22838) | SID134312073 | no change | no change | 0.22 | 2.33 | inactive |
| PDLIM3 (GeneID 27295) | SID134323958 | no change | no change | -0.57 | 0.29 | inactive |
| CSRNP2 (GeneID 81566) | SID134318772 | no change | no change | -0.02 | 0.6 | inactive |
| GPATCH1 (GeneID 55094) | SID134320801 | no change | no change | 0.41 | -0.68 | inactive |
| IGDCC4 (GeneID 57722) | SID134318346 | no change | no change | 0.3 | 0.36 | inactive |
| THAP11 (GeneID 57215) | SID135624207 | no change | no change | -0.14 | 1.38 | inactive |
| IGLL1 (GeneID 3543) | SID135622214 | no change | no change | 0.55 | 0.66 | inactive |

A stretch taken from the entries so far, for reference:
| gene | PubChem SID | viability hit class | caspase hit class | viability robust z-score | caspase robust z-score | Outcome |
| --- | --- | --- | --- | --- | --- | --- |
| ZNF304 (GeneID 57343) | SID134324369 | no change | no change | 0.9 | 0.06 | inactive |
| CYP3A5 (GeneID 1577) | SID134314409 | no change | no change | 1 | 2.38 | inactive |
| RGP1 (GeneID 9827) | SID152151631 | no change | no change | 0.02 | -1.31 | inactive |
| GPHA2 (GeneID 170589) | SID134319341 | no change | no change | 0.3 | -0.61 | inactive |
| OR4C11 (GeneID 219429) | SID135624587 | no change | no change | 1.03 | -1.17 | inactive |
| TOM1L1 (GeneID 10040) | SID134310157 | no change | no change | 0.72 | -0.93 | inactive |
| CYB5R2 (GeneID 51700) | SID152152419 | no change | no change | 1.65 | 0.56 | inactive |
| STRN3 (GeneID 29966) | SID135623686 | no change | no change | 0.34 | 1.62 | inactive |
| SEMA4G (GeneID 57715) | SID135623689 | no change | no change | -0.76 | 0.34 | inactive |
